The match of structure and compound is tentative.

By UniProt entry, the sequences of proteins in these tests, tags left out. Residues count along the entry.
UniProt A0A1U8BVR4, 1-326: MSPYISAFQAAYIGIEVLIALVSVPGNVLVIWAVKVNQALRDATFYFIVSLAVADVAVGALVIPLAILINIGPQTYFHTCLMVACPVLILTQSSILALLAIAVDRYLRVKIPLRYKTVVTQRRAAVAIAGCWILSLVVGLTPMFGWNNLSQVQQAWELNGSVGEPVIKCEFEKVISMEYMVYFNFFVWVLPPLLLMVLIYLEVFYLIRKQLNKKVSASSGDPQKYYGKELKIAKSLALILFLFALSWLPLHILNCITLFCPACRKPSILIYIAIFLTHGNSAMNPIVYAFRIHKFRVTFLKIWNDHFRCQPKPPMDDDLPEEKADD

This note sets out measurements from patent publication US7381714B2, “A1 adenosine receptor agonists” (CV Therapeutics, Inc., priority 2005, dated 2008).

For this test, the target named is A1 adenosine receptor (Mesocricetus auratus, UniProt A0A1U8BVR4). The test can be described thus: Competitive radioligand binding assay, DDT cell membranes. The settings on record: read-out: A1 BINDING AFFINITY Ki; membranes of DDT cells; tritiated radioligand 1.5 nM; 23° C. 90 minutes. The procedure: DDT cells (hamster vas deferens smooth muscle cell line) were grown as monolayers in petri dishes using Dulbecco's Modified Eagle's Medium (DMEM) containing 2.5 μg mL^−1 amphotericin B, 100 U mL^−1 penicillin G, 0.1 mg mL^−1 streptomycin sulfate and 5% fetal bovine serum in a humidified atmosphere of 95% air and 5% CO2. Cells were subcultured twice weekly by dispersion in Hank's Balanced Salt Solution (HBSS) without the divalent cations and containing 1 mM EDTA. The cells were then seeded in growth medium at a density of 1.2×10^5 cells per plate and experiments were performed 4 days later at approximately one day preconfluence.
Attached cells were washed twice with HBSS (2×10 mL), scraped free of the plate with the aid of a rubber policeman in 5 mL of 50 mM Tris-HCl buffer pH 7.4 at 4° C. and the suspension was homogenized for 10 s. The suspension was then centrifuged at 27,000×g for 10 min. The pellet was resuspended in homogenization buffer by vortexing and centrifuged again as described above. […] The protein content was determined with a BradfordTm Assay Kit using bovine serum albumin as standard.
Compounds of Formula I were assayed by use of competitive radioligand binding methods to determine their affinity for the A1 adenosine receptor sites on the membranes of DDT cells. […] The amount of radioactivity retained on the filters was determined by liquid scintillation spectrometry. […]

In general, Ki refers to the dissociation constant of the complex between target and ligand, obtained from inhibition or displacement. Take `OC[C@H]1O[C@@H](n2cnc3c(NC4CCCC4)nc(-c4nn[nH]n4)nc32)[C@H](O)[C@@H]1O`: the Ki is 8.25 nM.
